According to the supplement of paper PMC11438910:
The other results are listed elsewhere or left out. The signal is at background level for most entries.

Tests used:
Assay in all cases: fluorescence intensity of antibody binding to polysaccharide-coupled beads; higher = stronger binding
[1] = biological target: pneumococcal polysaccharide Pn25A
[2] = biological target: pneumococcal polysaccharide Pn25F
[3] = biological target: pneumococcal polysaccharide Pn27
[4] = biological target: pneumococcal polysaccharide Pn28A
[5] = biological target: pneumococcal polysaccharide Pn28F
[6] = biological target: pneumococcal polysaccharide Pn29
[7] = biological target: pneumococcal polysaccharide Pn3
[8] = biological target: pneumococcal polysaccharide Pn31
[9] = biological target: pneumococcal polysaccharide Pn32A
[10] = biological target: pneumococcal polysaccharide Pn32F
[11] = biological target: pneumococcal polysaccharide Pn33A
[12] = biological target: pneumococcal polysaccharide Pn33B
[13] = antibody concentration 0.1 ng/mL
[14] = antibody concentration 0.534724 ng/mL
[15] = antibody concentration 2.8593 ng/mL
[16] = antibody concentration 15.2894 ng/mL
[17] = antibody concentration 81.7561 ng/mL
[18] = antibody concentration 437.17 ng/mL
[19] = antibody concentration 2337.65 ng/mL
[20] = antibody concentration 12500 ng/mL

B1: 4-127.5 (protein)
chain 1: QVQLQESGPGLVKPSETLSLTCAVSGYSISSGYGWSWIRQPPGKGLEWIGYIGGSDSSTNYNPSLKSRVTISKDTSKNQLSLKLRSVTAADTAVYYCGSRGAVAGLGGLDSWGQGLLVTVSS
chain 2: QSVLTQPPSVSGAPGQRVTISCTGSSSNIGAGYGVQWYQQLPGTAPKLLIYENNKRPSGVFDRFSGSQSGTSGSLTITGLQSEDEADYYCQSYDSSLKAVLFGGGTRLTVL
B1 gave a fluorescence intensity [1, 13] of 25.5 MFI, a fluorescence intensity [1, 14] of 24.5 MFI and a fluorescence intensity [1, 15] of 25.5 MFI. The fluorescence intensity [1, 16] was 25 MFI, the fluorescence intensity [1, 17] was 24 MFI and the fluorescence intensity [1, 18] was 25.2 MFI. It also gave a fluorescence intensity [1, 19] of 29 MFI, a fluorescence intensity [1, 20] of 31 MFI and a fluorescence intensity [2, 13] of 30.8 MFI. The fluorescence intensity [2, 14] was 32 MFI, the fluorescence intensity [2, 15] was 31.5 MFI and the fluorescence intensity [2, 16] was 30.8 MFI. It also gave a fluorescence intensity [2, 17] of 32 MFI, a fluorescence intensity [2, 18] of 32 MFI and a fluorescence intensity [2, 19] of 31.5 MFI. For the same binder, the fluorescence intensity [2, 20] was 42.5 MFI, the fluorescence intensity [3, 13] was 17.5 MFI and the fluorescence intensity [3, 14] was 18.5 MFI. For the same binder, the fluorescence intensity [3, 15] was 17.5 MFI, the fluorescence intensity [3, 16] was 17.8 MFI and the fluorescence intensity [3, 17] was 18 MFI. The fluorescence intensity [3, 18] was 17.8 MFI, the fluorescence intensity [3, 19] was 24.5 MFI and the fluorescence intensity [3, 20] was 124 MFI. It also gave a fluorescence intensity [4, 13] of 28.8 MFI, a fluorescence intensity [4, 14] of 29 MFI and a fluorescence intensity [4, 15] of 29 MFI. For the same binder, the fluorescence intensity [4, 16] was 28 MFI, the fluorescence intensity [4, 17] was 26.2 MFI and the fluorescence intensity [4, 18] was 27.5 MFI. For the same binder, the fluorescence intensity [4, 19] was 29 MFI, the fluorescence intensity [4, 20] was 33 MFI and the fluorescence intensity [5, 13] was 31.5 MFI. The fluorescence intensity [5, 14] was 30 MFI, the fluorescence intensity [5, 15] was 31.5 MFI and the fluorescence intensity [5, 16] was 30.5 MFI. The fluorescence intensity [5, 17] was 30 MFI, the fluorescence intensity [5, 18] was 31.5 MFI and the fluorescence intensity [5, 19] was 33.5 MFI. For the same binder, the fluorescence intensity [5, 20] was 54.5 MFI, the fluorescence intensity [6, 13] was 17 MFI and the fluorescence intensity [6, 14] was 16.5 MFI. The fluorescence intensity [6, 15] was 17.5 MFI, the fluorescence intensity [6, 16] was 17.5 MFI and the fluorescence intensity [6, 17] was 16.5 MFI. The fluorescence intensity [6, 18] was 17.5 MFI, the fluorescence intensity [6, 19] was 21.5 MFI and the fluorescence intensity [6, 20] was 65 MFI. The fluorescence intensity [7, 13] was 14 MFI, the fluorescence intensity [7, 14] was 16.5 MFI and the fluorescence intensity [7, 15] was 37.5 MFI. The fluorescence intensity [7, 16] was 150 MFI, the fluorescence intensity [7, 17] was 1060 MFI and the fluorescence intensity [7, 18] was 2800 MFI. The fluorescence intensity [7, 19] was 11700 MFI, the fluorescence intensity [7, 20] was 12200 MFI and the fluorescence intensity [8, 13] was 15.5 MFI. It also gave a fluorescence intensity [8, 14] of 16 MFI, a fluorescence intensity [8, 15] of 13 MFI and a fluorescence intensity [8, 16] of 14.5 MFI. It also gave a fluorescence intensity [8, 17] of 14 MFI, a fluorescence intensity [8, 18] of 16 MFI and a fluorescence intensity [8, 19] of 18.5 MFI. For the same binder, the fluorescence intensity [8, 20] was 56 MFI, the fluorescence intensity [9, 13] was 16.5 MFI and the fluorescence intensity [9, 14] was 18 MFI. It also gave a fluorescence intensity [9, 15] of 17.5 MFI, a fluorescence intensity [9, 16] of 18.5 MFI and a fluorescence intensity [9, 17] of 19 MFI. It also gave a fluorescence intensity [9, 18] of 18 MFI, a fluorescence intensity [9, 19] of 20.5 MFI and a fluorescence intensity [9, 20] of 34.5 MFI. For the same binder, the fluorescence intensity [10, 13] was 26.8 MFI, the fluorescence intensity [10, 14] was 29 MFI and the fluorescence intensity [10, 15] was 27 MFI. It also gave a fluorescence intensity [10, 16] of 28 MFI, a fluorescence intensity [10, 17] of 31.5 MFI and a fluorescence intensity [10, 18] of 29.5 MFI. It also gave a fluorescence intensity [10, 19] of 37.5 MFI, a fluorescence intensity [10, 20] of 44.5 MFI and a fluorescence intensity [11, 13] of 19.5 MFI. The fluorescence intensity [11, 14] was 18 MFI, the fluorescence intensity [11, 15] was 19 MFI and the fluorescence intensity [11, 16] was 20 MFI. The fluorescence intensity [11, 17] was 19.8 MFI, the fluorescence intensity [11, 18] was 25 MFI and the fluorescence intensity [11, 19] was 89.2 MFI. The fluorescence intensity [11, 20] was 829 MFI, the fluorescence intensity [12, 13] was 18 MFI and the fluorescence intensity [12, 14] was 18.5 MFI.
